36 molecules from PubChem BioAssay AID2685 (National Center for Advancing Translational Sciences (NCATS), 2010) can be followed below.

The other results are listed elsewhere or left out. Shown are side measurements of this screen, not its main read-out; they come without a call. Most of these compounds were active or inconclusive in the main read-out, so they are no random draw. Words in brackets tell the shape of the fitted curve; partial curves, single points and poor fits give uncertain potencies.

The experiment can be described thus: qHTS Assay for Lipid Storage Modulators in Drosophila S3 Cells.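 On cell number change: cells counted by Cell Tracker Red CMTPX staining in the red channel.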 The following applies: BODIPY lipid droplet fluorescence, 18-24 h; for cell number change: measured here: cell count max response, cells fed with added oleic acid. The method in brief: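 Drosophila S3 cells got compounds at several concentrations plus oleic acid (400 uM solution). Laser-scanning cytometry with 488 nm excitation read lipid droplets at 500-530 nm and cells at 575-640 nm. Percent activity was relative to 20 uM Triacsin C.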
For orientation: Quantitative high-throughput screening tests each substance at several concentrations.

Setting [1] is: measured here: cell number channel AC50, cells fed with added oleic acid.
[2] abbreviates: measured here: lipid fluorescence (Fed channel) AC50, cells fed with added oleic acid.

For orientation: AC50 means the midpoint of the concentration-response curve, whichever way the signal moves. With `O=C(NCCN1C(=O)S/C(=C\c2ccc(Cl)c(Cl)c2)C1=O)c1ccc2c(c1)C(=O)N(Cc1ccncc1)C2=O`, the cell number change was -33%. Also, the AC50 under setting [1] is 14.6 µM [falling, single point]. Under setting [2], the AC50 was 20.6 µM [falling, single point].
Take `Cc1ccnc(N2CCC(C(=O)Nc3ccc(Oc4ccccc4)cc3)CC2)n1`: the cell number change was 12.5%. Moreover, under setting [2], the AC50 was 29.1 µM [rising, single point].
Regarding `Nc1ncn([C@H]2C[C@H](O)[C@@H](CO)O2)c(=O)n1`, the cell number change is -30.4%. Besides, the AC50 under setting [1] was 0.366 µM [falling, partial curve, poor fit]. Moreover, the AC50 under setting [2] is 0.184 µM [falling, full curve].
Regarding `CC(=O)c1ccc(OCC(=O)OCC(=O)N(CC(C)C)c2c(N)n(Cc3ccccc3)c(=O)[nH]c2=O)cc1`, the cell number change is -93.6%. Moreover, the AC50 under setting [1] is 25.9 µM [falling, partial curve, poor fit]. Besides, the AC50 under setting [2] is 29.1 µM [falling, single point].
As for `COc1cc2c(cc1OC)C(=O)N1[C@H]3c4ccccc4OC[C@@H]3[C@H](c3ccccc3)[C@]1(C)C(=O)N2`, the cell number change was determined as 16.5%. The AC50 under setting [2] is 16.4 µM [rising, single point].
Turning to `COc1cc(/C=N/NC(=O)CCc2c(C)n[nH]c2C)ccc1O`, the cell number change stood at 26.3%. For the same molecule, the half-maximal activity concentration (AC50) under setting [2] is 29.1 µM [rising, single point].
Regarding `O=C(Cc1c(Cl)cccc1Cl)Nc1ccncc1`, the cell number change is -2.83%. The AC50 under setting [2] was 0.58 µM [falling, single point].
Consider `Cn1c(=O)c2c(ncn2CC(=O)OCC(=O)Nc2ccccc2)n(C)c1=O`, for which the cell number change was 29.5%. Also, under setting [2], the AC50 was 0.206 µM [rising, full curve, poor fit].
For `COc1cccc(CC(=O)N2CCCC(CCC(=O)N3CCN(c4ccccn4)CC3)C2)c1` (centres undefined), the cell number change was -24.2%. Under setting [2], the AC50 was 29.1 µM [falling, single point].
With `COc1cc(/C=N/NC(=O)c2ccc(NC(=O)C3CC3)cc2)ccc1OC(C)=O`, the cell number change turned out to be 59.9%. The AC50 under setting [1] is 20.6 µM [rising, partial curve].
Take `FC(F)(F)c1ccccc1Nc1nccs1`: the cell number change turned out to be 36.5%. Further, under setting [1], the AC50 was 25.9 µM [rising, single point].
Take `CCC(C)NC(=O)C1CCN(CCCc2ccccc2)CC1` (centres undefined): the cell number change worked out at 2.27%.
Consider `O=C(COc1ccccc1)N/N=C/c1ccc2c(c1)OCO2`, for which the cell number change is 46.2%. In addition, the AC50 under setting [1] was 20.6 µM [rising, single point].
In the case of `Cc1ccc2nc(NC(=O)c3ccc(N4C(=O)CCC4=O)cc3)sc2c1`, the cell number change was 17.3%.
As for `Cc1cccc(CN2C[C@]34CC[C@@H](C[C@@H]3S2(=O)=O)O4)c1`, the AC50 under setting [2] was 3.66 µM [falling, full curve].
`CC(C)c1ccccc1N1CC(C(=O)O)CC1=O` (centres undefined): the cell number change was found to be 12.1%. Besides, the AC50 under setting [2] was 29.1 µM [falling, partial curve].
With `CCC(=O)Nc1ccccc1Oc1ccccc1`, the cell number change was determined as 1.46%. Further, under setting [2], the AC50 is 0.461 µM [rising, partial curve].
For the molecule `Cc1cc2ncc(S(=O)(=O)C(C)(C)C)c(N)n2n1`, the cell number change was 26.2%. For the same molecule, the AC50 under setting [2] was 32.6 µM [rising, single point].
Consider `COc1ccc(NC(=O)CCCn2c(=O)c3sccc3n(Cc3cccc(C)c3)c2=O)cc1`, for which, under setting [2], the AC50 was 0.461 µM [rising, full curve].
For the molecule `C#CCNC(=O)C1=C[C@@H](c2coc3ccccc3c2=O)[C@H](CCCO)[C@@H](OCC)O1`, the cell number change is -3.31%. Under setting [2], the AC50 is 29.1 µM [falling, single point].
For `Cc1ccccc1N(C(=O)CS(=O)CC(=O)Nc1ccc(F)cc1)C(C)C(=O)NC(C)(C)C` (centres undefined), the cell number change came out at 24.4%. For the same molecule, the AC50 under setting [2] is 29.1 µM [rising, single point].
Turning to `CCN(C(=S)NCCOC)c1cccc2ccccc12`, the cell number change was 2.36%. Under setting [2], the AC50 is 0.794 µM [falling, full curve, poor fit].
Consider `O=C(Cn1cnc2ccccc2c1=O)NCCC(=O)Nc1ccccc1C(F)(F)F`, for which, under setting [2], the AC50 is 0.0206 µM [falling, full curve].
For `O=C(Nc1nc2ccccc2[nH]1)c1cccc(S(=O)(=O)N2CCOCC2)c1`, the AC50 under setting [2] was 0.58 µM [rising, partial curve].
Consider `CC(=O)Nc1sc(C)c(C)c1C(=O)OC1CCOC1=O` (centres undefined), for which the cell number change was -6.63%.
For `CC1(C)CC(/C=C/c2ccccc2)=Nc2ccccc2N1`, the cell number change is -18.1%. Besides, under setting [2], the AC50 was 18.4 µM [falling, single point].
Take `CCCN1C(=O)/C(=C/c2ccc(C)s2)NC1=S`: the cell number change is -48.4%. Further, the AC50 under setting [1] was 18.4 µM [falling, single point]. For the same molecule, under setting [2], the AC50 was 20.6 µM [falling, single point].
On to `C[n+]1cc(C(=O)N2CCCCC2)ccc1/C=C/c1c[nH]c2ccccc12`, for which the cell number change came out at 17.8%. Under setting [2], the AC50 was 0.411 µM [falling, partial curve, poor fit].
With `CS(=O)(=O)n1nc(-c2cccnc2)nc1NCc1ccccc1`, the cell number change was -20.5%. For the same molecule, under setting [2], the AC50 is 0.184 µM [rising, full curve, poor fit].
As to `CCOc1ccc(C2N(c3ccc(F)cc3)C(=O)C3CCCN32)cc1` (centres undefined), the cell number change was -13%. Moreover, the AC50 under setting [1] is 1.03 µM [falling, single point]. Further, the AC50 under setting [2] is 1.03 µM [falling, single point].
In the case of `O=C(Nc1ccccc1)N1CCN(C(=O)Nc2ccccc2)CC1`, the cell number change was 9.09%. Further, the AC50 under setting [1] is 0.0103 µM [rising, full curve, poor fit]. Besides, the AC50 under setting [2] is 0.0058 µM [rising, full curve, poor fit].
As to `Cc1cccc(NC(=O)COc2ccc(-c3nn(C)c(=O)c4ccccc34)cc2)c1`, the cell number change is -10.3%. In addition, under setting [2], the AC50 was 1.46 µM [falling, partial curve].
`CCC1(C)Cc2c(sc3nn[nH]c(=O)c23)CO1` (centres undefined): the AC50 is, setting by setting: under setting [1], 0.731 µM [falling, full curve, poor fit]; under setting [2], 29.1 µM [falling, single point].
`O=[N+]([O-])c1ccc(N=Nc2ccc(O)cc2O)cc1`: the cell number change is -73.8%. Under setting [1], the AC50 was 4.11 µM [falling, partial curve]. Further, the AC50 under setting [2] was 20.6 µM [falling, partial curve].
As to `COc1ccccc1N/C(N)=N/c1nc(CSc2ccc(C)cc2)cc(=O)[nH]1`, the cell number change is -41%. Under setting [1], the AC50 is 8.2 µM [falling, partial curve, poor fit]. Under setting [2], the AC50 was 18.4 µM [falling, partial curve, poor fit].
In the case of `CCC(C)NC(=O)COc1ccc(Br)c(C)c1` (centres undefined), the cell number change amounted to 33.6%. For the same molecule, the AC50 under setting [1] was 16.4 µM [rising, single point]. Further, the AC50 under setting [2] is 6.51 µM [falling, single point].
